From publication PMC10687119, “Quaternary Ammonium Salts of Cationic Lipopeptides with Lysine Residues — Synthesis, Antimicrobial, Hemolytic and Cytotoxic Activities” (Probiotics and Antimicrobial Proteins, 2023)
Like-named read-outs stand apart in the source and are kept apart here. Where a SMILES comes first, the peptide text is derived from it. [ ]: non-standard residue; d: D form. The star is where a group is joined. Lys(Me3) = C[N+](C)(C)CCCC[C@H](N)C(=O)O; Stearoyl = CCCCCCCCCCCCCCCCCC(=O)*; Palmitoyl = CCCCCCCCCCCCCCCC(=O)*; Myristoyl = CCCCCCCCCCCCCC(=O)*

How the values were obtained:
[1] = tested on: K. pneumoniae ATCC 700603; type: cell-based, Klebsiella pneumoniae
Description: (§1) The Acinetobacter baumannii ATCC BAA-1605, Enterococcus faecium ATCC 700221, Klebsiella aerogenes ATCC 13048, Klebsiella pneumoniae ATCC 700603, Pseudomonas aeruginosa ATCC 9027, Staphylococcus aureus ATCC 33591, Candida glabrata ATCC 15126 strains were acquired from the American Type Culture Collection (ATCC, Manassas, USA). All the strains were stored at −80 °C in Roti-Store cryo vials (Carl Roth GmbH, Germany) and before the tests were transferred into fresh Mueller–Hinton broth (MHB, Becton Dickinson, Poland) for bacteria or RPMI-1640 (Sigma-Aldrich, Germany) for fungi and incubated for 24 h at 37 °C. Then, the cultures were cultured on the Mueller–Hinton agar (BioMaxima, Poland) or Sabouraud dextrose agar (SDA, BioMaxima) plates, respectively, and incubated as just mentioned. For microbiological assays, a minimum of three to five well-isolated colonies of the same morphological type were carefully picked from the agar cultures. These colonies were transferred with sterile loop into fresh microbiological medium and incubated with shaking (100 rpm) at 37 °C until they reached logarithmic phase of growth. Cell densities for all assays were adjusted through spectrophotometric measurements (Multiskan GO Microplate Spectrophotometer, Thermo Fisher Scientific, Finland) at 600 and 530 nm for bacteria and fungi, respectively.
(§2) The MICs were determined by broth microdilution method according to the Clinical and Laboratory Standard Institute guidelines. For this purpose, initial inoculums of bacteria (5 × 10^5 CFU/mL) in MHB and yeasts (2 × 10^3 CFU/mL) in RPMI-1640 with 2% D-glucose were exposed to the ranging concentration of lipopeptides (1–512 μg/mL) and incubated at 37 °C for 18 h and 24 h, respectively. The experiments were conducted on 96-well microtiter polystyrene plates (Kartell, Italy). The growth was assessed visually after incubation and the MIC was assumed as the lowest peptide concentration at which a noticeable growth of microorganisms was inhibited. Benzalkonium chloride (Sigma-Aldrich, Germany) was used as reference compound. All experiments were conducted in triplicate.

P. aeruginosa ATCC 9027 = type: cell-based, Pseudomonas aeruginosa; settings: for Selectivity index (SI) P. aeruginosa: IC50 (HaCaT)/MIC
Description: as §1, §2

[2] = tested on: A. baumannii ATCC BAA 1605; type: cell-based, Acinetobacter baumannii; settings: for Selectivity index (SI) A. baumannii: IC50 (HaCaT)/MIC
Description: as §1, §2

K. aerogenes ATCC 13048 = type: cell-based, Klebsiella aerogenes; settings: for Selectivity index (SI) K. aerogenes: IC50 (HaCaT)/MIC
Description: as §1, §2

E. faecium ATCC 700221 = type: cell-based, Enterococcus faecium
Description: as §1, §2

S. aureus ATCC 33591 = type: cell-based, Staphylococcus aureus; settings: for Selectivity index (SI) S. aureus: IC50 (HaCaT)/MIC
Description: as §1, §2

C. glabrata ATCC 15126 = type: cell-based, Candida glabrata; settings: SI of qUSCL divided by SI of parent USCL
Description: as §1, §2

[3] = SI of qUSCL divided by SI of parent USCL

Compound	Selectivity index (SI) K. pneumoniae ([1]; HC50/MIC)	Selectivity index (SI) K. pneumoniae ([1]; IC50 (HaCaT)/MIC)	Selectivity index (SI) P. aeruginosa (P. aeruginosa ATCC 9027)	Selectivity index (SI) A. baumannii [2]	Selectivity index (SI) K. aerogenes (K. aerogenes ATCC 13048)	further results
CCCCCCCCCCCCCC(=O)N[C@@H](CCCCN)C(N)=O [Peptide 1M, C14-K-NH2]	-	- (due to lack of antimicrobial activity of compound for specific strain with MIC >512 µg/mL, SI tends to zero)	- (due to lack of antimicrobial activity of compound for specific strain with MIC >512 µg/mL, SI tends to zero)	- (due to lack of antimicrobial activity of compound for specific strain with MIC >512 µg/mL, SI tends to zero)	- (due to lack of antimicrobial activity of compound for specific strain with MIC >512 µg/mL, SI tends to zero)	
CCCCCCCCCCCCCC(=O)N[C@@H](CCCC[N+](C)(C)C)C(N)=O [Peptide 1Mq, C14-K(Me3)^+-NH2]	-	- (due to lack of antimicrobial activity of compound for specific strain with MIC >512 µg/mL, SI tends to zero)				quotient SIqUSCLs/SIUSCLs in terms of HC50, E. faecium (E. faecium ATCC 700221; [3]): 0.1; quotient SIqUSCLs/SIUSCLs in terms of HC50, S. aureus (S. aureus ATCC 33591; [3]): 0.1
CCCCCCCCCCCCCCCC(=O)N[C@@H](CCCCN)C(N)=O [Peptide 1P, C16-K-NH2]	-	- (due to lack of antimicrobial activity of compound for specific strain with MIC >512 µg/mL, SI tends to zero)	- (due to lack of antimicrobial activity of compound for specific strain with MIC >512 µg/mL, SI tends to zero)	- (due to lack of antimicrobial activity of compound for specific strain with MIC >512 µg/mL, SI tends to zero)	- (due to lack of antimicrobial activity of compound for specific strain with MIC >512 µg/mL, SI tends to zero)	Selectivity index (SI) S. aureus (S. aureus ATCC 33591): - (due to lack of antimicrobial activity of compound for specific strain with MIC >512 µg/mL, SI tends to zero)
CCCCCCCCCCCCCCCC(=O)N[C@@H](CCCC[N+](C)(C)C)C(N)=O [Peptide 1Pq, C16-K(Me3)^+-NH2]			- (due to lack of antimicrobial activity of compound for specific strain with MIC >512 µg/mL, SI tends to zero)			
CCCCCCCCCCCCCCCCCC(=O)N[C@@H](CCCCN)C(N)=O [Peptide 1S, C18-K-NH2]	-	- (due to lack of antimicrobial activity of compound for specific strain with MIC >512 µg/mL, SI tends to zero)	- (due to lack of antimicrobial activity of compound for specific strain with MIC >512 µg/mL, SI tends to zero)	- (due to lack of antimicrobial activity of compound for specific strain with MIC >512 µg/mL, SI tends to zero)	- (due to lack of antimicrobial activity of compound for specific strain with MIC >512 µg/mL, SI tends to zero)	Selectivity index (SI) E. faecium (E. faecium ATCC 700221; HC50/MIC): -; Selectivity index (SI) E. faecium (E. faecium ATCC 700221; IC50 (HaCaT)/MIC): - (due to lack of antimicrobial activity of compound for specific strain with MIC >512 µg/mL, SI tends to zero); Selectivity index (SI) S. aureus (S. aureus ATCC 33591): - (due to lack of antimicrobial activity of compound for specific strain with MIC >512 µg/mL, SI tends to zero)
CCCCCCCCCCCCCCCCCC(=O)N[C@@H](CCCC[N+](C)(C)C)C(N)=O [Peptide 1Sq, C18-K(Me3)^+-NH2]	-	- (due to lack of antimicrobial activity of compound for specific strain with MIC >512 µg/mL, SI tends to zero)	- (due to lack of antimicrobial activity of compound for specific strain with MIC >512 µg/mL, SI tends to zero)	- (due to lack of antimicrobial activity of compound for specific strain with MIC >512 µg/mL, SI tends to zero)	- (due to lack of antimicrobial activity of compound for specific strain with MIC >512 µg/mL, SI tends to zero)	
CCCCCCCCCCCCCC(=O)N[C@@H](CCCCN)C(=O)N[C@@H](CCCCN)C(N)=O [Peptide 2M, C14-KK-NH2]	-	- (due to lack of antimicrobial activity of compound for specific strain with MIC >512 µg/mL, SI tends to zero)				
CCCCCCCCCCCCCC(=O)N[C@@H](CCCC[N+](C)(C)C)C(=O)N[C@@H](CCCC[N+](C)(C)C)C(N)=O [Peptide 2Mq, C14-K(Me3)^+K(Me3)^+-NH2]	-	- (due to lack of antimicrobial activity of compound for specific strain with MIC >512 µg/mL, SI tends to zero)	- (due to lack of antimicrobial activity of compound for specific strain with MIC >512 µg/mL, SI tends to zero)	- (due to lack of antimicrobial activity of compound for specific strain with MIC >512 µg/mL, SI tends to zero)	- (due to lack of antimicrobial activity of compound for specific strain with MIC >512 µg/mL, SI tends to zero)	quotient SIqUSCLs/SIUSCLs in terms of HC50, C. glabrata (C. glabrata ATCC 15126): 0.7
CCCCCCCCCCCCCC(=O)N[C@@H](CCCCN)C(=O)N[C@@H](CCCCN)C(=O)N[C@@H](CCCCN)C(N)=O [Peptide 3M, C14-KKK-NH2]	-	- (due to lack of antimicrobial activity of compound for specific strain with MIC >512 µg/mL, SI tends to zero)				
CCCCCCCCCCCCCC(=O)N[C@@H](CCCC[N+](C)(C)C)C(=O)N[C@@H](CCCC[N+](C)(C)C)C(=O)N[C@@H](CCCC[N+](C)(C)C)C(N)=O [Peptide 3Mq, C14-K(Me3)^+K(Me3)^+K(Me3)^+-NH2]	-					
CCCCCCCCCCCCCC(=O)N[C@@H](CCCCN)C(=O)N[C@@H](CCCCN)C(=O)N[C@@H](CCCCN)C(=O)N[C@@H](CCCCN)C(N)=O [Peptide 4M, C14-KKKK-NH2] (Myristoyl-KKKK-NH2)	-	- (due to lack of antimicrobial activity of compound for specific strain with MIC >512 µg/mL, SI tends to zero)				
CCCCCCCCCCCCCC(=O)N[C@@H](CCCC[N+](C)(C)C)C(=O)N[C@@H](CCCC[N+](C)(C)C)C(=O)N[C@@H](CCCC[N+](C)(C)C)C(=O)N[C@@H](CCCC[N+](C)(C)C)C(N)=O [Peptide 4Mq, C14-K(Me3)^+K(Me3)^+K(Me3)^+K(Me3)^+-NH2] (Myristoyl-[Lys(Me3)][Lys(Me3)][Lys(Me3)][Lys(Me3)]-NH2)	-					
CCCCCCCCCCCCCCCC(=O)N[C@@H](CCCC[N+](C)(C)C)C(=O)N[C@@H](CCCC[N+](C)(C)C)C(=O)N[C@@H](CCCC[N+](C)(C)C)C(=O)N[C@@H](CCCC[N+](C)(C)C)C(N)=O [Peptide 4Pq, C16-K(Me3)^+K(Me3)^+K(Me3)^+K(Me3)^+-NH2] (Palmitoyl-[Lys(Me3)][Lys(Me3)][Lys(Me3)][Lys(Me3)]-NH2)	-				- (due to lack of antimicrobial activity of compound for specific strain with MIC >512 µg/mL, SI tends to zero)	
CCCCCCCCCCCCCCCCCC(=O)N[C@@H](CCCC[N+](C)(C)C)C(=O)N[C@@H](CCCC[N+](C)(C)C)C(=O)N[C@@H](CCCC[N+](C)(C)C)C(=O)N[C@@H](CCCC[N+](C)(C)C)C(N)=O [Peptide 4Sq, C18-K(Me3)^+K(Me3)^+K(Me3)^+K(Me3)^+-NH2] (Stearoyl-[Lys(Me3)][Lys(Me3)][Lys(Me3)][Lys(Me3)]-NH2)						quotient SIqUSCLs/SIUSCLs in terms of HC50, P. aeruginosa (P. aeruginosa ATCC 9027; [3]): 0.2; quotient SIqUSCLs/SIUSCLs in terms of HC50, A. baumannii [2, 3]: 0.7; quotient SIqUSCLs/SIUSCLs in terms of HC50, K. aerogenes (K. aerogenes ATCC 13048; [3]): 0.7
